This note sets out measurements from the supplement of paper PMC10849652.

Sequences of proteins named here, by UniProt entry; tags and fusion partners are left off. A change or cut given only in a name is not applied to a line headed by its entry.
UniProt P48637: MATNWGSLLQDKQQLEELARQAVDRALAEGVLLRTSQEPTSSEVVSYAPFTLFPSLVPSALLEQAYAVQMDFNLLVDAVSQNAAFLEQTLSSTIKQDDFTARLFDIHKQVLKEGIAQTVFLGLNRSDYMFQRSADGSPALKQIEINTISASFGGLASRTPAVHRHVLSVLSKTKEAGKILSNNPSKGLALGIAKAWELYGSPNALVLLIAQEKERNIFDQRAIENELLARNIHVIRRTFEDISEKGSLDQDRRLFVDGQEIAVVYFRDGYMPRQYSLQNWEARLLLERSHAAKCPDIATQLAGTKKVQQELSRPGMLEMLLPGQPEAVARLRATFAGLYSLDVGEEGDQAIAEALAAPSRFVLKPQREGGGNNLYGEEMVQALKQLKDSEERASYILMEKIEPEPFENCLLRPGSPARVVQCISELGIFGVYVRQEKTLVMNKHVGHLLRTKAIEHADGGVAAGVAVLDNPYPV
UniProt Q9Y3E1: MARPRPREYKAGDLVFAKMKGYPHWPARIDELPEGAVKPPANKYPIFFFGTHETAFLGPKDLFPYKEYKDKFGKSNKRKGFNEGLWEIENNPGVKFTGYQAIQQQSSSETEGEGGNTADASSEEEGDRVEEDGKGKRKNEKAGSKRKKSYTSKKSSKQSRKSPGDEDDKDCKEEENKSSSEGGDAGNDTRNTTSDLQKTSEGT
UniProt Q5JVS0: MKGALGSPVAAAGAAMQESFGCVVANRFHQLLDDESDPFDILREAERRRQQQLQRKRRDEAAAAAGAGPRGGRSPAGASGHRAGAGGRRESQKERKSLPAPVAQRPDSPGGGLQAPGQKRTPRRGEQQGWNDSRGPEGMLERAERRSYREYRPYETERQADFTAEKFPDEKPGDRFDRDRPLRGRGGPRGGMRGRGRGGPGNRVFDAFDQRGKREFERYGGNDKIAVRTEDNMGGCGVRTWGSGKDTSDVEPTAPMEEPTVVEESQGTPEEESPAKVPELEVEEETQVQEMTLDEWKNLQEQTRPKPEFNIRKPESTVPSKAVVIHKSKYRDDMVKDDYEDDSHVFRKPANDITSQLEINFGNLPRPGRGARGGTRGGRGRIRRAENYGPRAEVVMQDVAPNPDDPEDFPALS
UniProt Q12789: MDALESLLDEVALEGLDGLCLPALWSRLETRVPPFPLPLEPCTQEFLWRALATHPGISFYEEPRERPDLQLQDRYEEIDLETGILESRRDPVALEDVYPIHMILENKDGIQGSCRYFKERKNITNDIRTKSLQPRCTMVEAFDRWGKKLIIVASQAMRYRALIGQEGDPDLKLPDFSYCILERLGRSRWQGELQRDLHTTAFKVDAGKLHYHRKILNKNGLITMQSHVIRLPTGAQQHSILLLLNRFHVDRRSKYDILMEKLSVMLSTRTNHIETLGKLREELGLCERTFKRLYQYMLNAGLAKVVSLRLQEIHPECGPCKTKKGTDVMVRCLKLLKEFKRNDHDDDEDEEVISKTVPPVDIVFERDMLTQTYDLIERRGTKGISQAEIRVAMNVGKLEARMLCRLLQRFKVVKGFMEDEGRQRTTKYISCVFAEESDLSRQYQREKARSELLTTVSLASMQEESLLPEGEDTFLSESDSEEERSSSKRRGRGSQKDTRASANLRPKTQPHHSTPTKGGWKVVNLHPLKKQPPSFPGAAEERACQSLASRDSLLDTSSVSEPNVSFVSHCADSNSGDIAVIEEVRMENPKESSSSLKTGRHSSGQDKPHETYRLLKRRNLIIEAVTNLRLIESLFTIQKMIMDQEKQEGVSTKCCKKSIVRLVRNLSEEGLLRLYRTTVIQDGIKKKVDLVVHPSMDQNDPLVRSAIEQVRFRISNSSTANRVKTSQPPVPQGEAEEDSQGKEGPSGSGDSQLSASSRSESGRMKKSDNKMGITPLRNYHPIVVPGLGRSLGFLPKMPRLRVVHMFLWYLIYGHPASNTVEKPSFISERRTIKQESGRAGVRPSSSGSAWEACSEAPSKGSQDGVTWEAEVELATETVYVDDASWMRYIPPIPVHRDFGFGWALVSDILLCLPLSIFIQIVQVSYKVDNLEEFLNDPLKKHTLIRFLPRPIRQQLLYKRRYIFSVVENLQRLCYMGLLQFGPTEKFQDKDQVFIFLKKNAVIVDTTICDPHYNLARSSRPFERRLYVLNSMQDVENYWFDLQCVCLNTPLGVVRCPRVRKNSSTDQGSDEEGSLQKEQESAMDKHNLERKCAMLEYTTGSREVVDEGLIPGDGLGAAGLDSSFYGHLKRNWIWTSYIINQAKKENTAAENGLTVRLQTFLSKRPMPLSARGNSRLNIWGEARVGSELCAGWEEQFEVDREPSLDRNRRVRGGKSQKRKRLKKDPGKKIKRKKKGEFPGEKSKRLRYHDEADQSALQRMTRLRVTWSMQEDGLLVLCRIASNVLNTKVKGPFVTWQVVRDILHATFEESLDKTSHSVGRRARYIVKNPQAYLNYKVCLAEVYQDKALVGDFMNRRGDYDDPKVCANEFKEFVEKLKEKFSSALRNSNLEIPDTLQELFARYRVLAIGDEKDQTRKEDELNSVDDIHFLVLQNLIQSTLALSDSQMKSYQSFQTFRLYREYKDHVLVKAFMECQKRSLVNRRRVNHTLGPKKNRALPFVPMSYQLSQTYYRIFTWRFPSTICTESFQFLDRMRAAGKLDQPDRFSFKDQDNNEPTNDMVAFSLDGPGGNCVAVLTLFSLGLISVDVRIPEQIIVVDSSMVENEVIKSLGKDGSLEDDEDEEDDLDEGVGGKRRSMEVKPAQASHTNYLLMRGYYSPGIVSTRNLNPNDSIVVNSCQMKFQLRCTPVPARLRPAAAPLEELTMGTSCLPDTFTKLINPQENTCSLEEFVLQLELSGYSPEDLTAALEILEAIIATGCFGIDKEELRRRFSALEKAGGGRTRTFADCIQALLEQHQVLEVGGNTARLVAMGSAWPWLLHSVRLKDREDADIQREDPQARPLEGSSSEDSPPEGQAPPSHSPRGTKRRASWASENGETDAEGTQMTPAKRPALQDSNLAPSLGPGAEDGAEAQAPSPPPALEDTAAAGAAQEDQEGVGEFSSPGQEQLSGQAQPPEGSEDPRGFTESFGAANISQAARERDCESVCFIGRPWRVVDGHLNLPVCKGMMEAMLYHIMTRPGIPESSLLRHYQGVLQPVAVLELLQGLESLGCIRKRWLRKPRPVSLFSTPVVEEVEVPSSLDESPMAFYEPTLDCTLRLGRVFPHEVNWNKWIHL
UniProt Q9P035: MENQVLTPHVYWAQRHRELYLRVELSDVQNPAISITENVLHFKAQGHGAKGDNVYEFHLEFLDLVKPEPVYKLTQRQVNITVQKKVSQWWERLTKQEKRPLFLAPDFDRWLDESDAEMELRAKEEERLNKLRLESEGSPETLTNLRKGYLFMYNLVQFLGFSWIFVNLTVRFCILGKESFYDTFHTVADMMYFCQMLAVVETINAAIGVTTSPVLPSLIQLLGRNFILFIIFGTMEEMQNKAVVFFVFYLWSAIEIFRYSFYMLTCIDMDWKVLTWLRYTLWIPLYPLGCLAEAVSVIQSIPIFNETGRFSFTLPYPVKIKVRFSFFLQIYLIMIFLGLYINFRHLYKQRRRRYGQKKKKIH
UniProt A2PYH4: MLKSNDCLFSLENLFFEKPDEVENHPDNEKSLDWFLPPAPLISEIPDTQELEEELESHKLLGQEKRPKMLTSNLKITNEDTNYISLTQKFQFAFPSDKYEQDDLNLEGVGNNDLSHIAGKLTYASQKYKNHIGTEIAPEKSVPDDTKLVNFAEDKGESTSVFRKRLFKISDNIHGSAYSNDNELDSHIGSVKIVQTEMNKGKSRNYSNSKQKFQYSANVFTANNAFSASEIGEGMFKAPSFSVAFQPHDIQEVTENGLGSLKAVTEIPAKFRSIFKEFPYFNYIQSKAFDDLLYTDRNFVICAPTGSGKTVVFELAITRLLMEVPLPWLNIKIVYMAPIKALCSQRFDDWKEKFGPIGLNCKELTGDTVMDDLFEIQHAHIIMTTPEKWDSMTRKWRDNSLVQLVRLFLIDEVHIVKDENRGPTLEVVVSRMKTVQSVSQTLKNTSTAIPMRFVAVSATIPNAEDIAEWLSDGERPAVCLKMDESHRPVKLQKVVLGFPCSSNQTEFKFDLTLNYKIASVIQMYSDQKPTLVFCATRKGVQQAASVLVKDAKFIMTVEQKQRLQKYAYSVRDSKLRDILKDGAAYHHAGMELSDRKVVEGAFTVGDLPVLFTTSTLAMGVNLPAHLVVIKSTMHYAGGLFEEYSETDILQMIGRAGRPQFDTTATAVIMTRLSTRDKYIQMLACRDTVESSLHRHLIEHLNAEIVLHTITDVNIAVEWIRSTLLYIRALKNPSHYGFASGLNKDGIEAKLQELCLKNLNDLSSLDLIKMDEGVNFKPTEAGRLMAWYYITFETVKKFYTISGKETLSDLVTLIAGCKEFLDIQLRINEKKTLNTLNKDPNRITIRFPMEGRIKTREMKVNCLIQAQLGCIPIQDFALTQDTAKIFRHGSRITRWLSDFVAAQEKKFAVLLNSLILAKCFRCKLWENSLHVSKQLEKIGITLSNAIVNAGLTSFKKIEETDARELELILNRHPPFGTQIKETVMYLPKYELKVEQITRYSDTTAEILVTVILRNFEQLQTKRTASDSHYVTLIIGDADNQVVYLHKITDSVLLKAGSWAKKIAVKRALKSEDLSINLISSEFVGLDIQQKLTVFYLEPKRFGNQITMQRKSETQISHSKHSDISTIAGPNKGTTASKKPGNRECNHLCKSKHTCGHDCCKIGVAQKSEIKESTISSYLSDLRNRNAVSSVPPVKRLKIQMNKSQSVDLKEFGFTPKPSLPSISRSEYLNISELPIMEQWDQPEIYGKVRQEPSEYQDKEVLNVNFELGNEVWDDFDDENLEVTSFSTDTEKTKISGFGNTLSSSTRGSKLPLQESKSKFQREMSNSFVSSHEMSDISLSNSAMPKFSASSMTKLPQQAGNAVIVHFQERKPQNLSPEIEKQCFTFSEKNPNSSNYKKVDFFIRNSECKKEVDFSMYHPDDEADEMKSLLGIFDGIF
UniProt P51858: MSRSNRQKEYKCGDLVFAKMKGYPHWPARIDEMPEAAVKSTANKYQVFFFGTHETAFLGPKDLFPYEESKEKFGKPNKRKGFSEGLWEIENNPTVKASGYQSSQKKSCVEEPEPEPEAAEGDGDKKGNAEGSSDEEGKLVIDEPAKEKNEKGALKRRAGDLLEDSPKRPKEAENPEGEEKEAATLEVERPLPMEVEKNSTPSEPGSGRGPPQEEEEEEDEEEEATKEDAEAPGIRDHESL
UniProt O14929: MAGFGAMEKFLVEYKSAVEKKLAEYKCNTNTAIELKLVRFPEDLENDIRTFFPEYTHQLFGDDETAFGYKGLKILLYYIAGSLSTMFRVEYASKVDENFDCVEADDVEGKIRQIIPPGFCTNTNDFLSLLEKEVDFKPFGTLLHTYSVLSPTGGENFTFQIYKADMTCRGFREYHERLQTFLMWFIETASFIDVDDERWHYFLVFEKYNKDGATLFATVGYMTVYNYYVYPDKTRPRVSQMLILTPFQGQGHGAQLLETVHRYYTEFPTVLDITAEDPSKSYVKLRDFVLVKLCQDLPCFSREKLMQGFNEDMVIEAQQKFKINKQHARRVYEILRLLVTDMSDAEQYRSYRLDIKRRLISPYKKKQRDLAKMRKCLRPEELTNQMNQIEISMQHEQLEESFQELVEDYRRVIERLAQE
UniProt P52657, whole entry, looked up: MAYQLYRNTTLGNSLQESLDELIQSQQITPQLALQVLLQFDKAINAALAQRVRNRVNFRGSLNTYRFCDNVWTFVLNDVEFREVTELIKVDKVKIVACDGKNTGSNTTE
UniProt P10412, whole entry, looked up: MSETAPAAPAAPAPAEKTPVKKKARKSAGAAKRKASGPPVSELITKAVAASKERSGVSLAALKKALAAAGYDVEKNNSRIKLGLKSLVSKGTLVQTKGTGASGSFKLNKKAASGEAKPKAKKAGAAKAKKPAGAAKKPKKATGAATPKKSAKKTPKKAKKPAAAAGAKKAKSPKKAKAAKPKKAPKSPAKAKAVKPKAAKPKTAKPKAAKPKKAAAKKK
UniProt Q9BXL5: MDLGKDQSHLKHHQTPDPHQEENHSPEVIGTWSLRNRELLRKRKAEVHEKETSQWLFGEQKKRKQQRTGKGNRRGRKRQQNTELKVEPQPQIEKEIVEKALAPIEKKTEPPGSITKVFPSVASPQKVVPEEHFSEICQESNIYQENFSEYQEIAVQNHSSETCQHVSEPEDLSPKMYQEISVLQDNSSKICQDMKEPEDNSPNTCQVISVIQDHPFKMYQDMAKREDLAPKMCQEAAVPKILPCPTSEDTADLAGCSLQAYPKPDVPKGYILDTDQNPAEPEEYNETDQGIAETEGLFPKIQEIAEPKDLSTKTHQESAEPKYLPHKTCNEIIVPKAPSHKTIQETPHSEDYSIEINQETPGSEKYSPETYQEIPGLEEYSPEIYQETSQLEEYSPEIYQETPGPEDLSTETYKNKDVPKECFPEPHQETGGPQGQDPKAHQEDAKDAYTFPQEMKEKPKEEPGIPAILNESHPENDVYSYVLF

Some of the results follow.

Compound in this assay: C1=CC=C(C=C1)[C@H](COC2=CC3=C(C=C2)NC(=O)N3)NC(=O)C4=CC=CN(C4=O)CC5=CC(=C(C=C5)F)F
Nature of the assay: log2 fold change, soluble protein after heating vs DMSO (PISA); higher = thermal stabilisation; K562 cells, 10 uM, 30 min; active = over 0.2 and 3.5 SD of the protein, either way, in both replicates (recomputed). Summed up:
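K562 cells (2×10^6 cells/mL) were treated with 10 μM compound for 30 min, and aliquots were heated for 3 min over 48°C-58°C. Pooled aliquots were extracted in PBS with 0.5% NP-40 at 4°C, and the supernatant after 21,000xg for 90 min was measured by TMTpro 16plex LC-MS/MS with channel sums equalised. Reported thermal stability, relative to control samples and from duplicates, is a log2 fold change.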
In the case of H3-3A (UniProt P84243), the log2 fold change was inactive: -0.004.
As for GSS (UniProt P48637), the log2 fold change was inactive: 0.016.
Consider HDAC3 isoform 2 (UniProt O15379), for which the log2 fold change was inactive: -0.013.
In the case of GTF2H3 (UniProt Q13889) it was inactive: 0.062; in that of HDGFL3 (UniProt Q9Y3E1), inactive: -0.003; in that of GTF2B (UniProt Q00403), inactive: -0.036.
Under HABP4 (UniProt Q5JVS0) stands inactive: -0.002; under GTF3C1 (UniProt Q12789), inactive: -0.414.
Under HACD3 (UniProt Q9P035) stands inactive: 0.011.
As for HELLS (UniProt Q9NRZ9), the log2 fold change was inactive: 0.054.
In the case of HCFC1 isoform 4 (UniProt P51610) it was inactive: -0.069.
As for HFM1 (UniProt A2PYH4), the log2 fold change is inactive: 0.011.
In the case of HELQ (UniProt Q8TDG4) it was inactive: 0.101.
As to HDGF (UniProt P51858), the log2 fold change is inactive: 0.011.
Under HEATR3 (UniProt Q7Z4Q2) stands inactive: -0.073; under HAT1 (UniProt O14929), inactive: 0.009; under GTF2A2 (UniProt P52657), inactive: 0.003.
Under GTPBP6 (UniProt O43824) stands inactive: 0.038; under HEXA (UniProt P06865), inactive: 0.042; under GYG1 (UniProt P46976), inactive: 0.02.
Under H1-4 (UniProt P10412) stands inactive: 0.177; under GTF2F1 (UniProt P35269), inactive: 0.009.
For the target HEMGN (UniProt Q9BXL5), the log2 fold change is inactive: 0.011.
As for HAGH (UniProt Q16775), the log2 fold change is inactive: 0.015.
